In PubChem BioAssay AID504467 (National Center for Advancing Translational Sciences (NCATS), 2011):
Screen size: about 330,000 compounds; about 7,700 (2.3%) were called active. Inconclusive means that the source gave no clear call. Such entries were picked first, then a sample of the others. The call rests on the fitted dose curve; in most records, active means well fitted inhibition curve with a large enough effect; inconclusive means small, poorly fitted or top-dose-only effect, or effect the other way; inactive means flat fitted curve, though single readings scatter. Potencies beside an inconclusive call are fits to weak or partial responses and may not hold up.

assay: qHTS screen for small molecules that inhibit ELG1-dependent DNA repair in human embryonic kidney (HEK293T) cells expressing luciferase-tagged ELG1; details: HEK293T ELG1-luciferase reporter, luminescence, 16 h, DNA damage induced by 5-fluorouridine; series mostly up to 46.1 µM; further: nearly all actives have a fitted effect of over 55% in size
Outline: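 Overnight (16 hr) co-exposure of 2,000 cells/well to 5-fluorouridine and compound at 37 °C preceded detection. Luciferase was quantified via ONE-Glo luminescence; loss of signal denotes inhibition.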
Potency means the concentration at half of the fitted maximal effect.

SMILES	Potency
Cc1ccc(C(=O)NCC(=O)Nc2ccc(S(=O)(=O)Nc3cc(C)nc(C)n3)cc2)cc1	inactive
CCOc1nc(C)ccc1-c1noc(-c2ccccn2)n1	inconclusive: 7.31 µM [activator, partial curve, poor fit]
N/N=C(\Cc1cscn1)c1ccc(O)cc1O	active: 23.1 µM
CCN(CC)CCCNC(=O)c1cc2c(-c3cccc(OC)c3)nn(C)c2s1	inconclusive: 5.17 µM [activator, partial curve, poor fit]
CC1=NN(C(=O)c2nn(C)cc2Br)C(O)(C(F)(F)F)C1 (centres undefined)	inactive
COc1ccc([N+](=O)[O-])cc1NC(=O)c1csc(C)c1	inconclusive: 5.17 µM [inhibitor, single point]
O=C(/C(=C/c1cccc(Cl)c1)c1nc2ccccc2[nH]1)c1ccccc1	inconclusive: 29.1 µM [inhibitor, single point]
N=C1CCC(=N)c2c1c(O)c1ccccc1c2O	inconclusive: 18.3 µM [inhibitor, single point]
Cn1c(=NC(=O)CS(=O)(=O)c2ccccc2)sc2ccccc21	inconclusive: 23.1 µM [activator, partial curve]
CCc1ccc(-c2nc(SCC(=O)N(CC)C3CCS(=O)(=O)C3)n[nH]2)cc1 (centres undefined)	inconclusive: 8.2 µM [activator, partial curve, poor fit]
Cc1nc2cc(Cl)c(Cl)cc2n1CCCO	inconclusive: 25.9 µM [inhibitor, partial curve, poor fit]
N#CCCn1cc(/C=N/NC(N)=S)c(-c2ccc(Br)cc2)n1	inconclusive: 29.1 µM [inhibitor, single point]
Cc1ccc(C(C(=O)NCc2ccccc2)N(Cc2cccs2)C(=O)c2ccc3c(c2)OCCO3)cc1 (centres undefined)	active: 2.91 µM
Cc1cccc(NC(=O)CCC(=O)N2CCOCC2)n1	inconclusive: 35.5 µM [activator, single point]
COc1ccc(CNC(=O)C2CCCN2S(=O)(=O)c2ccccc2)cc1 (centres undefined)	inactive
NC(=O)c1ccc(NC(=O)COC(=O)C2COc3ccccc3O2)cc1 (centres undefined)	inconclusive: 20.6 µM [activator, partial curve, poor fit]
C/C(=N\NC(=O)CN(c1ccccc1)S(C)(=O)=O)c1ccccc1O	active: 16.4 µM
O=C(N[C@H]1CCC(=O)N([C@H](CSc2ccccc2)Cc2ccccc2)CC1)OCc1ccccc1	inconclusive: 29.1 µM [inhibitor, single point]
COc1ccccc1CCNC(=O)C1CCN(c2nnc(C)c3c(C)n(-c4ccc(C)cc4)nc23)CC1	inconclusive: 7.3 µM [inhibitor, partial curve, poor fit]
Nc1nc(Cl)cc(-c2ccccc2)n1	inactive
CCCC1S/C(=N/N=C/c2ccco2)NC1=O (centres undefined)	inactive
COC(=O)N/N=C/c1cn(Cc2ccccc2F)c2ccccc12	active: 20.6 µM

SMILES	Potency
Cc1ccc(NC(=O)CN2C(=O)N/C(=C/c3cc(C)n(-c4ccc(C(=O)O)cc4)c3C)C2=O)cc1	inactive
COc1ccc(N=Nc2c(C)n[nH]c2C)cc1	inconclusive: 18.3 µM [activator, single point]
O=C(c1cc(S(=O)(=O)N2CCOCC2)c(Cl)cc1Cl)N1CCN(S(=O)(=O)c2cccc(F)c2)CC1	inactive
CC1CCCN(C2(O)C(=O)Nc3ccc(Cl)cc32)C1 (centres undefined)	inactive
Cc1ccc(CS(=O)(=O)c2ncc(Cl)c(C(=O)Nc3ccc(OC(F)F)cc3)n2)cc1	inconclusive: 29.1 µM [inhibitor, single point]
O=C(O)C1C2C=CC(C2)C1C(=O)NCCCc1ccccc1 (centres undefined)	inconclusive: 13 µM [activator, single point]
COC(=O)Cn1c(CN(C)Cc2ccccc2)nc2c1c(=O)n(C)c(=O)n2C	inactive
CCCCCCn1c(=O)c(C(=O)N/N=C/c2cccc(F)c2)c(O)c2ccccc21	inconclusive: 6.51 µM [inhibitor, single point]
COc1ccc(-c2nc(C#N)c(NCCc3ccccc3)o2)cc1OC	inconclusive: 3.26 µM [activator, single point]
NC(=O)C1CCN(C(=O)CCSc2ccccc2)CC1	inconclusive: 20.6 µM [activator, partial curve]
CCOC(=O)N1CCC(NC(=O)CN2C(=O)CCSc3ccccc32)CC1	inconclusive: 29.1 µM [activator, single point]
Cn1cccc1C(=O)OCC(=O)c1cc2ccccc2o1	inconclusive: 23.1 µM [activator, single point]
CCCC(=O)Nc1nc2nc(-c3ccccc3)cc(=O)n2[nH]1	inconclusive: 29.1 µM [activator, partial curve, poor fit]
CCOC(=O)/C(C#N)=C1/C=CN(c2ccccc2)C=N1	inconclusive: 14.6 µM [activator, partial curve]
CCCOc1ccc(C2CC(=O)Nc3cc(OC)c(OC)cc32)cc1 (centres undefined)	inactive
CCCN(Cc1nnc(-c2cccs2)o1)C(=O)c1cc(S(=O)(=O)N2CCOCC2)ccc1C	inconclusive: 16.4 µM [inhibitor, single point]
CC1CCc2nc(NC(=O)CN3CCN(c4ccccc4)CC3)sc2C1 (centres undefined)	inconclusive: 16.4 µM [inhibitor, single point]
Cc1cc(C)n(CCNC(=O)c2cc(COc3ccc(F)cc3Cl)on2)n1	inactive
COc1ccc(Cl)cc1NC(=O)CSc1nnc(Cc2cccn2C)n1-c1ccc(F)cc1	inactive
CN=c1nc(-c2ccccc2)n(-c2ccccc2)s1	inconclusive: 35.5 µM [activator, single point]
CC(OC(=O)c1ccc(NC(=O)CC#N)cc1)C(=O)Nc1nc(-c2ccccc2)cs1 (centres undefined)	inconclusive: 25.9 µM [inhibitor, single point]
COc1ccc([C@H]2CC(=O)C=C(c3ccc(-c4ccccc4)c(F)c3)C2)cc1	inconclusive: 5.8 µM [activator, full curve, poor fit]

Taken from the listing, three compounds:
SMILES	Potency
Cc1ccc(NC(=O)CN2C(=O)N/C(=C/c3cc(C)n(-c4ccc(C(=O)O)cc4)c3C)C2=O)cc1	inactive
COc1ccc(N=Nc2c(C)n[nH]c2C)cc1	inconclusive: 18.3 µM [activator, single point]
O=C(c1cc(S(=O)(=O)N2CCOCC2)c(Cl)cc1Cl)N1CCN(S(=O)(=O)c2cccc(F)c2)CC1	inactive
